These results are taken from paper PMC12638251, “Uridine-sensitized screening identifies demethoxy-coenzyme Q and NUDT5 as regulators of nucleotide synthesis” (Nature Metabolism, 2025).

Sequences of proteins named here, by UniProt entry; tags and fusion partners are left off. Residues count along the entry.
UniProt Q8CIH9, residues 12-517: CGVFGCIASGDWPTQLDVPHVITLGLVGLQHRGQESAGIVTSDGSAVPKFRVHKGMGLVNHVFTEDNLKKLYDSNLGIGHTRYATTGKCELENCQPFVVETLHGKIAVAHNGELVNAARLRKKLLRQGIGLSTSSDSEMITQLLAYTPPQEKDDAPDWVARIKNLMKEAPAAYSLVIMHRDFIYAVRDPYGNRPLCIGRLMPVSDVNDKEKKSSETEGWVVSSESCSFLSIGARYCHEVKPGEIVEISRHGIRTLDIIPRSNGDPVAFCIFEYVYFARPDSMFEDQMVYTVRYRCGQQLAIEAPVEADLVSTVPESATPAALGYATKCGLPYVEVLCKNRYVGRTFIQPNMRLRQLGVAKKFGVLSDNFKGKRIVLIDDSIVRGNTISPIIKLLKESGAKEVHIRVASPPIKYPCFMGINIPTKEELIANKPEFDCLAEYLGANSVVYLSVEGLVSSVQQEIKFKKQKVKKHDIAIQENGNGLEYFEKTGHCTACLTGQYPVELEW
UniProt Q06203, residues 12-517: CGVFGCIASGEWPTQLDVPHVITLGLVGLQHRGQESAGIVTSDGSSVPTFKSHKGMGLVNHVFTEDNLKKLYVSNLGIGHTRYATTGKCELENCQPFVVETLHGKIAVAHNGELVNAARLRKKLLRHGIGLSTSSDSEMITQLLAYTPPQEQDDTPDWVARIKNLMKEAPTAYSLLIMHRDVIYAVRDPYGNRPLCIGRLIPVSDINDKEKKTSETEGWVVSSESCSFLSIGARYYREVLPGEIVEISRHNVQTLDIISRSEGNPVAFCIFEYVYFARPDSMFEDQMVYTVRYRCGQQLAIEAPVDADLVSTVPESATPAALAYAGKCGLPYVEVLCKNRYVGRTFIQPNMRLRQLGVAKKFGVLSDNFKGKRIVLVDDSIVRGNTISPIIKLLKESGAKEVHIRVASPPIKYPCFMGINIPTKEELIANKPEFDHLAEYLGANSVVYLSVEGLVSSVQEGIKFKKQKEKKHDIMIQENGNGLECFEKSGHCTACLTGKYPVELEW
UniProt Q9JKX6: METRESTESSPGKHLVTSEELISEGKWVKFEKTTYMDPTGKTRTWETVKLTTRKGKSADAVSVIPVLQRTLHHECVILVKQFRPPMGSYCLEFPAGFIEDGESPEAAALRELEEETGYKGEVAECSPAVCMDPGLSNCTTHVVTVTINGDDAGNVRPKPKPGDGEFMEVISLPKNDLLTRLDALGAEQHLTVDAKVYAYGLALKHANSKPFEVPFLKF

No constants are given. Whether binding was seen depends on the method and setting. Some entries that bind do so weakly or less than the wild type.

Assay [1] addresses PPAT (endogenous, mouse) (mouse (endogenous in organs of C57BL/6J mice)) (UniProt Q8CIH9). The experiment in a line: condition: only with 10 mM PRPP in the lysis buffer; native gel or EMSA; parallel native PAGE of mouse organ homogenates with 10 mM PRPP added, 1–16 h at 4 °C, immunoblot for NUDT5 and PPAT.
Assay [2] has as its target PPAT (endogenous, human) (human (endogenous in 293T, K562 and other human cell lines)) (UniProt Q06203). The experiment in a line: native gel or EMSA; parallel native PAGE (4–16% gel) of human cell lysates in 1× Native Buffer with 1% digitonin, immunoblot for NUDT5 and PPAT; K562 (wild type, NUDT5 KO clones, KO clones with cDNA complementation) and other cell lines; untreated. On the technique in general: A gel shift assay detects complexes by their altered migration in electrophoresis.

Turning to “NUDT5 (endogenous, mouse) (from UniProt Q9JKX6 1-218) (enzyme)”, the binding result in assay [1] was “no binding”.
On to “PPAT (endogenous, human) (from UniProt Q06203 12-517) (enzyme; other documents disagree on this pair)”, for which the binding result in assay [2] was “binds”.
